Data published in the supplement of paper PMC4604168 (melanoma cell lines).
The other results are listed elsewhere or left out. Single values are uncertain, as repeats are few or missing.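 Imaging used 1,536-well plates; nuclei positive for cleaved PARP by antibody were divided by total DNA-stained nuclei to yield the apoptosis fraction. Doses for screening kept most cells viable, and cell lines differ markedly in resting and induced cleaved-PARP levels.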

What was measured:
Assay in all cases: cleaved PARP positive nuclei fraction relative to DMSO control; melanoma cells; higher = more apoptosis
Settings in all cases: library dose: low library concentration; 72 h
[1] = tested on: MZ2-MEL
[2] = tested on: MeWo
[3] = tested on: RPMI7951
[4] = tested on: RVH-421
[5] = tested on: SkMel28
[6] = tested on: SkMel30
[7] = tested on: SkMel5
[8] = tested on: UACC257
[9] = tested on: UACC62

Compound | cleaved PARP positive nuclei fraction [1] | cleaved PARP positive nuclei fraction [2] | cleaved PARP positive nuclei fraction [3] | cleaved PARP positive nuclei fraction [4] | cleaved PARP positive nuclei fraction [5] | cleaved PARP positive nuclei fraction [6] | cleaved PARP positive nuclei fraction [7] | cleaved PARP positive nuclei fraction [8] | cleaved PARP positive nuclei fraction [9]
C[C@]12O[C@H](C[C@]1(O)CO)n1c3ccccc3c3c4c(c5c6ccccc6n2c5c31)CNC4=O [Lestaurtinib] + O=C(Nc1cccc(Cl)c1)Nc1ncc(CCNc2ncnc3ccsc23)s1 [SNS314] (first compound 0.004 µM, partner dose 0.0008 µM) | 74.5% | 67.2% | 38.4% | 92.4% | 235% | 57.2% | 125% | 95.1% | 47.6%
C/C(O)=C(\C#N)C(=O)Nc1cc(Br)ccc1Br + Cn1cc(/C=C2\C(=O)Nc3cccnc32)c2ccccc21 [GW441756] (first compound 2 µM, partner dose 0.4 µM) | 62.8% | 107% | 182% | 44% | 197% | 8.63% | 234% | 179% | 167%
C/C(O)=C(\C#N)C(=O)Nc1cc(Br)ccc1Br + CC(C)CCN1c2nc(Nc3cc(F)c(O)c(F)c3)ncc2N(C)C(=O)C1C [BID1870] (first compound 2 µM, partner dose 0.2 µM) | 74.3% | 69% | 155% | 80.1% | 74.7% | 160% | 152% | 131% | 90%
CN(NC(=O)CC(=O)NN(C)C(=S)c1ccccc1)C(=S)c1ccccc1 + C/C(O)=C(\C#N)C(=O)Nc1cc(Br)ccc1Br [LFM-A13] (first compound 0.006 µM, partner dose 2 µM) | 118% | 62.7% | 213% | 106% | 144% | 10.9% | 117% | 152% | 54.5%
COc1cc2c(Oc3ccc4[nH]c(C)cc4c3F)ncnc2cc1OCCCN1CCCC1 [cediranib] + C/C(O)=C(\C#N)C(=O)Nc1cc(Br)ccc1Br [LFM-A13] (first compound 0.4 µM, partner dose 2 µM) | 118% | 51.5% | 133% | 53.8% | 100% | 145% | 162% | 94% | 106%
C[As](C)SC[C@H](NC(=O)CC[C@H](N)C(=O)O)C(=O)NCC(=O)O [Darinaparsin] + COc1ccc(COc2ccc(Cc3cnc(N)nc3N)cc2OC)cc1 [GW2580] (first compound 0.4 µM, partner dose 1 µM) | 173% | 98.8% | 68.2% | 61.6% | 60.4% | 67.1% | 60.8% | 77.7% | 48.6%
C[C@]12O[C@H](C[C@]1(O)CO)n1c3ccccc3c3c4c(c5c6ccccc6n2c5c31)CNC4=O [Lestaurtinib] + CCc1ccc(CCOc2ccc(CC3SC(=O)NC3=O)cc2)nc1 [pioglitazone] (first compound 0.004 µM, partner dose 2 µM) | 112% | 43.6% | 74.8% | 58.6% | 98.1% | 57.9% | 60.3% | 125% | 183%
N#Cc1c(O)c2c(-c3ccc(-c4ccccc4O)cc3)csc2[nH]c1=O + O=C(Oc1ccc([N+](=O)[O-])cc1)N1CCC(C(O)(c2ccc3c(c2)OCO3)c2ccc3c(c2)OCO3)CC1 [JZL184] (first compound 2 µM, partner dose 1 µM) | 68% | 89.7% | 147% | 40.9% | 71.9% | 22% | 75.9% | 131% | 73.1%
CO[C@H]1C[C@@H]2CC[C@@H](C)[C@@](O)(O2)C(=O)C(=O)N2CCCC[C@H]2C(=O)O[C@H]([C@H](C)C[C@@H]2CC[C@@H](OCCO)[C@H](OC)C2)CC(=O)[C@H](C)/C=C(\C)[C@@H](O)[C@@H](OC)C(=O)[C@H](C)C[C@H](C)/C=C/C=C/C=C/1C [everolimus] + C/C(O)=C(\C#N)C(=O)Nc1cc(Br)ccc1Br [LFM-A13] (first compound 0.02 µM, partner dose 2 µM) | 188% | 82.2% | 25.9% | 63.5% | 528% | 48.4% | 194% | 359% | 101%
N#Cc1c(O)c2c(-c3ccc(-c4ccccc4O)cc3)csc2[nH]c1=O + C/C(O)=C(\C#N)C(=O)Nc1cc(Br)ccc1Br [LFM-A13] (first compound 2 µM, partner dose 2 µM) | 63.2% | 27.3% | 84.8% | 81.3% | 102% | 30.6% | 66.4% | 69.4% | 153%
Cn1nnc2c(C(N)=O)ncn2c1=O [temozolomide] + Cc1cc(SCc2sc(-c3ccc(C(F)(F)F)c(F)c3)nc2C)ccc1OCC(=O)O [GW0742] (first compound 2 µM, partner dose 2 µM) | 52.4% | 49.9% | 90.7% | 26.9% | 75.9% | 64.7% | 30% | 36.8% | 43.6%
CCc1ccc(CCOc2ccc(CC3SC(=O)NC3=O)cc2)nc1 (stereo not drawn) [pioglitazone] + Cc1cc(SCc2sc(-c3ccc(C(F)(F)F)c(F)c3)nc2C)ccc1OCC(=O)O [GW0742] (first compound 2 µM, partner dose 2 µM) | 29.5% | 111% | 176% | 83.7% | 361% | 21.1% | 43.4% | 169% | 31.6%
